Measurements reported in PubChem BioAssay AID1259254 (NCATS, 2017).

Test: 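Genome-wide screen for genes that prevent DNA re-replication in cancer cells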 (primary screen)
Cell system: human HCT116 colorectal cancer cells
Reagents: single siRNA against human genes
Timing: 3 days
Measured: 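Nuclei stained with Hoechst and imaged; cell-cycle phase assigned by DNA content; G2 share scaled per plate, non-targeting siRNA 0%, GMNN siRNA 100%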
Reading the numbers: G2 robust z-score and G2 cells, % of GMNN control: higher = more G2 cells, more excess DNA replication
Active means: 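Active siRNAs have a G2 robust z of 5 or more median absolute deviations over the median, which in these data means about 38% or higher of GMNN control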
The deposit covers about 59,000 reagents; this is a part drawn at random. About 1,550 of all reagents (2.6%) were called active. 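G2 share is only a proxy for re-replication; each gene was hit by three separate siRNAs, and active genes were retested.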 Unmarked entries are inactive. The numbers tell different reagents against one gene apart. Not all columns of the deposit are shown. No sequences are given here. The record does not give: the amount of reagent.

| target gene | reagent no. | G2 robust z-score | G2 cells, % of GMNN control |
| --- | --- | --- | --- |
| LCE4A (GeneID 199834) | 1 | -0.373 | 0.343 |
| LCE4A (GeneID 199834) | 2 | 0.241 | 4.66 |
| LCE4A (GeneID 199834) | 3 | -0.47 | -0.339 |
| RTL1 (GeneID 388015) | 1 | 1.24 | 11.7 |
| RTL1 (GeneID 388015) | 2 | 4.85 | 37.1 |
| RTL1 (GeneID 388015) | 3 | -0.313 | 0.768 |
| HERPUD1 (GeneID 9709) | 1 | 0.524 | 6.66 |
| HERPUD1 (GeneID 9709) | 2 | -0.552 | -0.915 |
| HERPUD1 (GeneID 9709) | 3 | -0.495 | -0.518 |
| PPP1R26 (GeneID 9858) | 1 | -0.96 | -3.79 |
| PPP1R26 (GeneID 9858) | 2 | -0.166 | 1.8 |
| PPP1R26 (GeneID 9858) | 3 | 0.913 | 9.39 |
| SLC8A3 (GeneID 6547) | 1 | 0.761 | 8.32 |
| SLC8A3 (GeneID 6547) | 2 | 1.42 | 12.9 |
| SLC8A3 (GeneID 6547) | 3 | -0.507 | -0.6 |
| AP1AR (GeneID 55435) | 1 | -0.592 | -1.2 |
| AP1AR (GeneID 55435) | 2 | 4.9 | 37.5 |
| AP1AR (GeneID 55435) | 3 | 0.966 | 9.77 |
| KDM4E (GeneID 390245) | 1 | 4.87 | 37.2 |
| KDM4E (GeneID 390245) | 2 | 0.148 | 4.01 |
| KDM4E (GeneID 390245) | 3 | 5.28 (active) | 40.1 |
| ZFP30 (GeneID 22835) | 1 | -0.642 | -1.55 |
| ZFP30 (GeneID 22835) | 2 | 0.864 | 9.05 |
| ZFP30 (GeneID 22835) | 3 | 0.608 | 7.24 |
| FAN1 (GeneID 22909) | 1 | 0.452 | 6.15 |
| FAN1 (GeneID 22909) | 2 | -0.779 | -2.51 |
| FAN1 (GeneID 22909) | 3 | 0.413 | 5.88 |
| EREG (GeneID 2069) | 1 | -0.239 | 1.28 |
| EREG (GeneID 2069) | 2 | -0.00418 | 2.94 |
| EREG (GeneID 2069) | 3 | 3.21 | 25.6 |

Reformatted: 6 of the entries above.
target gene	reagent no.	G2 robust z-score	G2 cells, % of GMNN control
PPP1R26 (GeneID 9858)	2	-0.166	1.8
PPP1R26 (GeneID 9858)	3	0.913	9.39
SLC8A3 (GeneID 6547)	1	0.761	8.32
SLC8A3 (GeneID 6547)	2	1.42	12.9
SLC8A3 (GeneID 6547)	3	-0.507	-0.6
AP1AR (GeneID 55435)	1	-0.592	-1.2

Further results follow:
| target gene | reagent no. | G2 robust z-score | G2 cells, % of GMNN control |
| --- | --- | --- | --- |
| TUBB4B (GeneID 10383) | 1 | -0.188 | 1.64 |
| TUBB4B (GeneID 10383) | 2 | 9.61 (active) | 70.6 |
| TUBB4B (GeneID 10383) | 3 | -0.687 | -1.87 |
| CENPO (GeneID 79172) | 1 | -0.142 | 1.97 |
| CENPO (GeneID 79172) | 2 | -0.0808 | 2.4 |
| CENPO (GeneID 79172) | 3 | -0.719 | -2.09 |
| TEX19 (GeneID 400629) | 1 | 1.25 | 11.8 |
| TEX19 (GeneID 400629) | 2 | -0.0465 | 2.64 |
| TEX19 (GeneID 400629) | 3 | 1.91 | 16.4 |
| LINC01124 (GeneID 440925) | 1 | 1.04 | 10.3 |
| LINC01124 (GeneID 440925) | 2 | 0.0973 | 3.65 |
| LINC01124 (GeneID 440925) | 3 | -0.822 | -2.82 |
| GPBP1 (GeneID 65056) | 1 | 0.0451 | 3.28 |
| GPBP1 (GeneID 65056) | 2 | 0.347 | 5.41 |
| GPBP1 (GeneID 65056) | 3 | 0.0332 | 3.2 |
| FGF10 (GeneID 2255) | 1 | -1.05 | -4.42 |
| FGF10 (GeneID 2255) | 2 | -0.812 | -2.74 |
| FGF10 (GeneID 2255) | 3 | -0.972 | -3.87 |
| OR6Q1 (GeneID 219952) | 1 | -0.43 | -0.0586 |
| OR6Q1 (GeneID 219952) | 2 | -0.377 | 0.317 |
| OR6Q1 (GeneID 219952) | 3 | -0.651 | -1.61 |
| VN2R1P (GeneID 344760) | 1 | 2.62 | 21.4 |
| VN2R1P (GeneID 344760) | 2 | -1.06 | -4.5 |
| VN2R1P (GeneID 344760) | 3 | 2.86 | 23.1 |
| HCAR3 (GeneID 8843) | 1 | 7.09 (active) | 52.9 |
| HCAR3 (GeneID 8843) | 2 | 5.48 (active) | 41.5 |
| HCAR3 (GeneID 8843) | 3 | -0.794 | -2.62 |
| EXOC1 (GeneID 55763) | 1 | -0.392 | 0.209 |
| EXOC1 (GeneID 55763) | 2 | 0.898 | 9.28 |
| EXOC1 (GeneID 55763) | 3 | 1.78 | 15.5 |
| LOC730020 (retired record) (GeneID 730020) | 1 | -0.561 | -0.978 |
| LOC730020 (retired record) (GeneID 730020) | 2 | -0.13 | 2.05 |
| LOC730020 (retired record) (GeneID 730020) | 3 | -0.799 | -2.66 |
| IARS1 (GeneID 3376) | 1 | -0.751 | -2.32 |
| IARS1 (GeneID 3376) | 2 | -0.541 | -0.836 |
| IARS1 (GeneID 3376) | 3 | -1 | -4.09 |
| ABCB9 (GeneID 23457) | 1 | -1.11 | -4.85 |
| ABCB9 (GeneID 23457) | 2 | 0.483 | 6.37 |
| ABCB9 (GeneID 23457) | 3 | -1.49 | -7.54 |
